Source: PubChem BioAssay AID602196 (INSERM, 2012)
This is a random part of about 23,000 reagents. Over the whole deposit, 455 (2%) are marked active. 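Active includes both protection and sensitisation; some change values fall well beyond the stated -50 to +50 range.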 A number with no mark means an inactive call. Not all columns of the deposit are shown. No sequences are given here. Not stated in the record: the amount of reagent.

- Test: 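Genes whose knock-down alters cisplatin killing of lung cancer cells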
- Cell system: human A549 lung cancer cells
- Reagent: siRNA pair against human genes
- Time to read-out: 48 h transfection before cisplatin; time from cisplatin to read-out not stated
- Treatment: cisplatin at a dose killing half of control-siRNA cells; exact dose and duration not given
- Read-out: 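Shift in cisplatin death relative to control siRNA, from -50 (all cells die) to +50 (no cells die); siRNAs harmful on their own scored 0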
- Scale: two-siRNA summed score (-2 to +2): higher = both siRNAs protect from cisplatin killing; -2 means both sensitise; mean protection from cisplatin (shift in death): higher = protection from cisplatin killing
- Call rule: 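Each siRNA scores 0 if harmful alone by LDH or WST-1, otherwise +1 if it reduces and -1 if it increases cisplatin killing; a gene is active when both siRNAs agree (sum +2 or -2)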
- Calls: active = both siRNAs shift cisplatin killing the same way; inactive = no consistent shift, or siRNA harmful alone

For XRCC4 (GeneID 7518), what does the deposit list?
two-siRNA summed score (-2 to +2): 0; mean protection from cisplatin (shift in death) (%): -6.7

How did the screen score ZC3H12B (GeneID 340554)?
two-siRNA summed score (-2 to +2): 0; mean protection from cisplatin (shift in death) (%): 11.3

What did the screen give for ERCC2 (GeneID 2068)?
two-siRNA summed score (-2 to +2): 0; mean protection from cisplatin (shift in death) (%): 3

How did the screen score CCDC80 (GeneID 151887)?
two-siRNA summed score (-2 to +2): 1; mean protection from cisplatin (shift in death) (%): 8

What is on record for ANKRD54 (GeneID 129138)?
two-siRNA summed score (-2 to +2): 0; mean protection from cisplatin (shift in death) (%): 8.4

For SHOX2 (GeneID 6474), how do the results read?
two-siRNA summed score (-2 to +2): 0; mean protection from cisplatin (shift in death) (%): 1.5

How did the screen score LOC389029?
two-siRNA summed score (-2 to +2): -1; mean protection from cisplatin (shift in death) (%): -6.4

For PAX3 (GeneID 5077), what does the deposit list?
two-siRNA summed score (-2 to +2): -1; mean protection from cisplatin (shift in death) (%): -20.8

For PPARGC1A (GeneID 10891), what does the deposit list?
two-siRNA summed score (-2 to +2): -1; mean protection from cisplatin (shift in death) (%): -6.6

With CETN1 (GeneID 1068), how do the results read?
two-siRNA summed score (-2 to +2): 0; mean protection from cisplatin (shift in death) (%): 12.3

How did the screen score LOC439945?
two-siRNA summed score (-2 to +2): 0; mean protection from cisplatin (shift in death) (%): 9.5

What is on record for SUDS3P1 (GeneID 285647)?
two-siRNA summed score (-2 to +2): 0; mean protection from cisplatin (shift in death) (%): 6.7

With AAR2 (GeneID 25980), what does the deposit list?
two-siRNA summed score (-2 to +2): -1; mean protection from cisplatin (shift in death) (%): -27.6

What is on record for BACH2 (GeneID 60468)?
two-siRNA summed score (-2 to +2): -1; mean protection from cisplatin (shift in death) (%): -22.6

What is on record for LOC440386 (retired record) (GeneID 440386)?
two-siRNA summed score (-2 to +2): 1; mean protection from cisplatin (shift in death) (%): 5.8

Which result is listed for GET1P1 (GeneID 256085)?
two-siRNA summed score (-2 to +2): 0; mean protection from cisplatin (shift in death) (%): 5.8

For SCFD2 (GeneID 152579), what does the deposit list?
two-siRNA summed score (-2 to +2): 0; mean protection from cisplatin (shift in death) (%): 0.2

How did the screen score TANGO2 (GeneID 128989)?
two-siRNA summed score (-2 to +2): 0; mean protection from cisplatin (shift in death) (%): -4.1

For NSUN5 (GeneID 55695), what does the deposit list?
two-siRNA summed score (-2 to +2): 0; mean protection from cisplatin (shift in death) (%): 18.8

What did the screen give for LOC440522?
two-siRNA summed score (-2 to +2): 0; mean protection from cisplatin (shift in death) (%): 8.8

With STEEP1 (GeneID 63932), what does the deposit list?
two-siRNA summed score (-2 to +2): 0; mean protection from cisplatin (shift in death) (%): 10.5

For CYP3A4 (GeneID 1576), what does the deposit list?
two-siRNA summed score (-2 to +2): 0; mean protection from cisplatin (shift in death) (%): 1.9

How did the screen score SLC30A3 (GeneID 7781)?
two-siRNA summed score (-2 to +2): -1; mean protection from cisplatin (shift in death) (%): 2.4

For ALDH16A1 (GeneID 126133), what was measured?
two-siRNA summed score (-2 to +2): 0; mean protection from cisplatin (shift in death) (%): 11.9

With ACOT9 (GeneID 23597), what was measured?
two-siRNA summed score (-2 to +2): 0; mean protection from cisplatin (shift in death) (%): 6.1

With LOC400144, what was measured?
two-siRNA summed score (-2 to +2): 0; mean protection from cisplatin (shift in death) (%): 3.7

With PPP1R1B (GeneID 84152), what does the deposit list?
two-siRNA summed score (-2 to +2): 0; mean protection from cisplatin (shift in death) (%): 5.5

With ZNF137P (GeneID 7696), what does the deposit list?
two-siRNA summed score (-2 to +2): 0; mean protection from cisplatin (shift in death) (%): 6.7

With LINC01931 (GeneID 150596), what was measured?
two-siRNA summed score (-2 to +2): 0; mean protection from cisplatin (shift in death) (%): 3.1

Which result is listed for LOC441843?
two-siRNA summed score (-2 to +2): 0; mean protection from cisplatin (shift in death) (%): 0.8

With ZNF233 (GeneID 353355), what does the deposit list?
two-siRNA summed score (-2 to +2): 1; mean protection from cisplatin (shift in death) (%): 7.6

With LOC150946, how do the results read?
two-siRNA summed score (-2 to +2): 1; mean protection from cisplatin (shift in death) (%): 18.9

With CD47 (GeneID 961), what was measured?
two-siRNA summed score (-2 to +2): -1; mean protection from cisplatin (shift in death) (%): -0.4

What is on record for FDX2 (GeneID 112812)?
two-siRNA summed score (-2 to +2): 0; mean protection from cisplatin (shift in death) (%): -0.1

With ZNF48 (GeneID 197407), what was measured?
two-siRNA summed score (-2 to +2): 0; mean protection from cisplatin (shift in death) (%): 7.4

With ALX1 (GeneID 8092), what was measured?
two-siRNA summed score (-2 to +2): 0; mean protection from cisplatin (shift in death) (%): 7.5

With LTN1 (GeneID 26046), how do the results read?
two-siRNA summed score (-2 to +2): 0; mean protection from cisplatin (shift in death) (%): 15.6

For HPGDS (GeneID 27306), what does the deposit list?
two-siRNA summed score (-2 to +2): 0; mean protection from cisplatin (shift in death) (%): 6.6

What is on record for VPREB1 (GeneID 7441)?
two-siRNA summed score (-2 to +2): 0; mean protection from cisplatin (shift in death) (%): -4.6

What did the screen give for LOC147942?
two-siRNA summed score (-2 to +2): 0; mean protection from cisplatin (shift in death) (%): 3.8

Sorted by “two-siRNA summed score (-2 to +2)” (descending): 2 of the entries above
LOC389029: two-siRNA summed score (-2 to +2) = -1; mean protection from cisplatin (shift in death) (%) = -6.4
PAX3 (GeneID 5077): two-siRNA summed score (-2 to +2) = -1; mean protection from cisplatin (shift in death) (%) = -20.8
